Measured values from the supplement of paper PMC4604168 (melanoma cell lines).
The other results are listed elsewhere or left out. Many values rest on one well or one pass, so single values are uncertain.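 Imaging used 1,536-well plates; nuclei positive for cleaved PARP by antibody were divided by total DNA-stained nuclei to yield the apoptosis fraction. Doses for screening kept most cells viable, and cell lines differ markedly in resting and induced cleaved-PARP levels.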

tested on: CBRC034 (line from a melanoma biopsy); test: cleaved PARP positive nuclei fraction relative to DMSO control; melanoma cells; higher = more apoptosis; conditions: library dose: low library concentration; 72 h

Row | SMILES | cleaved PARP positive nuclei fraction
1 | CC(C)(C)c1cnc(CSc2cnc(NC(=O)C3CCNCC3)s2)o1 + Oc1cc(-c2nc(-c3ccccc3)[nH]c2-c2ccncc2)ccc1Cl [L779450] (first compound 0.01 µM, partner dose 0.2 µM) | 90.6%
2 | Cc1nc(Nc2ncc(C(=O)Nc3c(C)cccc3Cl)s2)cc(N2CCN(CCO)CC2)n1 [dasatanib] + COC(=O)c1sccc1S(=O)(=O)Nc1ccc(Nc2ccccc2)cc1OC [GSK0660] (first compound 0.004 µM, partner dose 1 µM) | 171%
3 | C#Cc1cccc(Nc2ncnc3cc(OCCOC)c(OCCOC)cc23)c1 [erlotinib] + O=C(O)C(=O)Nc1sc2c(c1C(=O)O)CCNC2 [TCS401] (first compound 0.8 µM, partner dose 1.66667 µM) | 353%
4 | Cn1c(Nc2ccc(C(F)(F)F)cc2)nc2cc(Oc3ccnc(-c4ncc(C(F)(F)F)[nH]4)c3)ccc21 + CCCCCCCCCCCC1=C(O)C(=O)C=C(O)C1=O [Embelin] (first compound 0.08 µM, partner dose 1.2 µM) | 198%
5 | Cn1cncc1[C@@](N)(c1ccc(Cl)cc1)c1ccc2c(c1)c(-c1cccc(Cl)c1)cc(=O)n2C [tipifarnib] + COc1cc2ncnc(Nc3ccc(Oc4ccccc4)cc3)c2cc1OC [SrcI1] (first compound 0.01 µM, partner dose 2 µM) | 109%
6 | C#Cc1cccc(Nc2ncnc3cc(OCCOC)c(OCCOC)cc23)c1 [erlotinib] + COc1cc2ncnc(Nc3ccc(Oc4ccccc4)cc3)c2cc1OC [SrcI1] (first compound 0.8 µM, partner dose 2 µM) | 78.4%
